The assay concerns the target T1, wild-type Ocr with C-terminal Strep-tag II (bacteriophage T7) (UniProt P03775).
T1 sequence: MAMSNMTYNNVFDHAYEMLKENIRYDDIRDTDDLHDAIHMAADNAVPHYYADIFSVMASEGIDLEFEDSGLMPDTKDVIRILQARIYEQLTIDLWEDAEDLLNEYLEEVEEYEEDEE
In words: pull-down; Strep-tagged protein and candidate partner produced in E. coli BW25113 from compatible plasmids (BREX- or BREX+ cells); clarified lysate on a StrepTrap HP column, washed with buffer A (150 mM NaCl, 1 mM EDTA, 100 mM Tris-HCl pH 8.0), eluted with desthiobiotin; SDS-PAGE, bands identified by MALDI-TOF mass spectrometry.

The values below come from article PMC7261183.

Results are given in words; binding and its absence hold for the method and conditions named. In cells and extracts the contact can be indirect. Some binding calls cover weakened binding; strength is not graded here. Sequences can lack the tags named with a protein.

B1: EcoKI M subunit (protein, UniProt P08957 1-529)
chain: MNNNDLVAKLWKLCDNLRDGGVSYQNYVNELASLLFLKMCKETGQEAEYLPEGYRWDDLKSRIGQEQLQFYRKMLVHLGEDDKKLVQAVFHNVSTTITEPKQITALVSNMDSLDWYNGAHGKSRDDFGDMYEGLLQKNANETKSGAGQYFTPRPLIKTIIHLLKPQPREVVQDPAAGTAGFLIEADRYVKSQTNDLDDLDGDTQDFQIHRAFIGLELVPGTRRLALMNCLLHDIEGNLDHGGAIRLGNTLGSDGENLPKAHIVATNPPFGSAAGTNITRTFVHPTSNKQLCFMQHIIETLHPGGRAAVVVPDNVLFEGGKGTDIRRDLMDKCHLHTILRLPTGIFYAQGVKTNVLFFTKGTVANPNQDKNCTDDVWVYDLRTNMPSFGKRTPFTDEHLQPFERVYGEDPHGLSPRTEGEWSFNAEETEVADSEENKNTDQHLATSRWRKFSREWIRTAKSDSLDISWLKDKDSIDADSLPEPDVLAAEAMGELVQALSELDALMRELGASDEADLQRQLLEEAFGGVKE
Turning to B1, the binding result is given as “binds”.

B2: EcoKI S subunit (protein, UniProt P05719 1-464)
chain: MSAGKLPEGWVIAPVSTVTTLIRGVTYKKEQAINYLKDDYLPLIRANNIQNGKFDTTDLVFVPKNLVKESQKISPEDIVIAMSSGSKSVVGKSAHQHLPFECSFGAFCGVLRPEKLIFSGFIAHFTKSSLYRNKISSLSAGANINNIKPASFDLINIPIPPLAEQKIIAEKLDTLLAQVDSTKARFEQIPQILKRFRQAVLGGAVNGKLTEKWRNFEPQHSVFKKLNFESILTELRNGLSSKPNESGVGHPILRISSVRAGHVDQNDIRFLECSESELNRHKLQDGDLLFTRYNGSLEFVGVCGLLKKLQHQNLLYPDKLIRARLTKDALPEYIEIFFSSPSARNAMMNCVKTTSGQKGISGKDIKSQVVLLPPVKEQAEIVRRVEQLFAYADTIEKQVNNALARVNNLTQSILAKAFRGELTAQWRAENPDLISGENSAAALLEKIKAERAASGGKKASRKKS
For B2, the binding entry is recorded as “binds”.
